Results: patent US12655385B2, “Cell culture compositions with antioxidants and methods for polypeptide production” (Genentech, Inc., priority 2013, dated 2026)

Tested on: IgG1 monoclonal antibody
Experiment: Antioxidant screening: incubation of Media 1/Media 2 mixture spiked with antibody, color intensity of purified antibody
Conditions: 1X test concentration in Media 1 + Media 2 mixture, 2 g/L IgG1 mAb, 5 days 37° C. 250 rpm; normalized to positive control (FIG. 1, FIG. 2)
Experimental: For antioxidant screening, a total volume of 40 ml media was prepared by mixing 1 part basal Media 1 and 0.3 part feed Media 2 to mirror a representative ratio of media used in cell culture conditions (Table 5). […] The samples were incubated at 37° C. with shaking at 250 rpm for a five day incubation period.
After incubation, the monoclonal antibody was purified using affinity chromatography. Color intensity of the concentrated antibody composition was measured in the purified pool using an assay wherein higher numerical values indicate higher color intensity and lower numerical values indicate lower color intensity. The numerical results were normalized to the positive control, where the value for the positive control was set at 0% change in color intensity.

Compound	color of the antibody composition (direction of change)
CC(S)C(=O)NCC(=O)O (stereo not drawn) [mercaptopropionyl glycine, 2-(2-sulfanylpropanamido)acetic acid]	increase the color of the antibody composition
C[C@]12CCC(=O)C=C1CC[C@@H]1[C@@H]2[C@@H](O)C[C@@]2(C)[C@H]1CC[C@]2(O)C(=O)CO [hydrocortisone, (1S,2R,10S,11S,14R,15S,17S)-14,17-dihydroxy-14-(2-hydroxyacetyl)-2,15-dimethyltetracyclo[8.7.0.0^{2,7}.0^{11,15}]heptadec-6-en-5-one, reference compound]	increase the color of the antibody composition
NCCS [cysteamine, 2-aminoethane-1-thiol]	increase the color of the antibody composition
O=C([O-])c1cc(O)ccc1O.[Na+] [gentisic acid, sodium 2,5-dihydroxybenzoate]	increase the color of the antibody composition
C[C@@H]1O[C@@H](Oc2c(-c3ccc(O)c(O)c3)oc3cc(O)cc(O)c3c2=O)[C@H](O)[C@H](O)[C@H]1O [quercitrin hydrate, 2-(3,4-dihydroxyphenyl)-5,7-dihydroxy-3-{[(2S,3R,4R,5R,6S)-3,4,5-trihydroxy-6-methyloxan-2-yl]oxy}-4H-chromen-4-one]	reduce the color of the antibody composition
NCCC(=O)N[C@@H](Cc1cnc[nH]1)C(=O)O [carnosine, (2S)-2-(3-aminopropanamido)-3-(1H-imidazol-5-yl)propanoic acid]	reduce the color of the antibody composition
Cn1cncc1C[C@H](NC(=O)CCN)C(=O)O.O=[N+]([O-])O [anserine, (2S)-2-(3-aminopropanamido)-3-(1-methyl-1H-imidazol-5-yl)propanoic acid; nitric acid]	reduce the color of the antibody composition
O=C(O)CCCC[C@@H]1CCSS1 [lipoic acid, 5-[(3R)-1,2-dithiolan-3-yl]pentanoic acid]	reduce the color of the antibody composition
COc1ccc(O)c(C(C)(C)C)c1 [butylated hydroxyanisole, 2-tert-butyl-4-methoxyphenol]	reduce the color of the antibody composition

Some entries repeat one wording, which the source may state once for all of them.
